The values below come from the supplement of paper PMC7877785.

The data set in a line: self-splicing fitness, log relative to wild type (ln ratio); higher = more splicing; Tetrahymena group I intron in knt gene, E. coli kanamycin selection, DiMSum; sequences stand for … in CUCUCU…GGAGGGAAAAGUUAUCAGGCAUGCACCUGGUAGCUAGUCUUUAAACCAAUAGAUUGCAUCGGUUUAAAAGGCAAGACCGUCAAAUUGCGGGAAAGGGGUCAACAGCCGUUCAGUACCAAGUCUCAGGGGAAACUUUGAGAUGGCCUUGCAAAGGGUAUGGUAAUAAGCUGACGGACAUGGUCCUAACCACGCAGCCAAGUCCUAAGUCAACAGAUCUUCUGUUGAUAUGGAUGCAGUUCACAGACUAAAUGUCGGUCGGGGAAGAUGUAUUCUUCUCAUAAGAUAUAGUCGGACCUCUCCUUAAUGGGAGCUAGCGGAUGAAGUGAUGCAACACUGGAGCCGCUGGGAACUAAUUUGUAUGCGAAAGUAUAUUGAUUAGUUUUGGAGUACUCGUGGUCG
The gist of the method:
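Colonies from six replicate transformations of E. coli BL21(DE3) were pooled and amplicon-sequenced on an Illumina HiSeq 2500. The library placed an intron with all eight P1ex-region nucleotides randomised inside the knt kanamycin-resistance gene on pET-22b(+), and cells grew overnight at 37°C or 30°C on LB agar with or without 25 μg/mL kanamycin (plus 100 μg/mL carbenicillin, 50 μM IPTG, 0.2% rhamnose). Fitness is the DiMSum error-weighted combination of wild-type-normalised replicate fold changes, kanamycin versus none.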

± gives the uncertainty stated by the source. Many of these values have a large error.

In the case of CUACAGCAAUAUUACGCACC, the “self-splicing fitness (ln)” value is, setting by setting: (30 °C) -2.79 ± 1.2; (37 °C) -2.87 ± 1. For the sequence UUUUAGCAAUAUUACGUCCU, the “self-splicing fitness (ln)” value (30 °C) is -2.91 ± 1.1. Still for that read-out and setting: the same measure for ACUGAGCAAUAUUACGAGUA: -3.03 ± 0.61.

As for GAAGAGCAAUAUUACGUCCA, under “37 °C”, the “self-splicing fitness (ln)” value is -2.4 ± 0.55. As for GACGAGCAAUAUUACGAGUA, the “self-splicing fitness (ln)” value reads like this: (30 °C) -3.81 ± 0.39; (37 °C) -3.26 ± 0.37. With GAACAGCAAUAUUACGGAGC, the “self-splicing fitness (ln)” value is -1.93 ± 0.057 (30 °C) and -1.13 ± 0.083 (37 °C).

For the sequence CCAGAGCAAUAUUACGCCGC, the “self-splicing fitness (ln)” value (30 °C) is -2.27 ± 0.54. On to GCUGAGCAAUAUUACGUUGG, for which the “self-splicing fitness (ln)” value by setting is: (30 °C) -2.52 ± 0.26; (37 °C) -1.9 ± 0.28. For CGGUAGCAAUAUUACGAACC, for the setting “30 °C”, the “self-splicing fitness (ln)” value was -3.76 ± 1. On the same count and under the same terms, under ACGGAGCAAUAUUACGACAA stands -2.36 ± 1.2; under CAAGAGCAAUAUUACGCUAG, -4.59 ± 0.59; under CAACAGCAAUAUUACGGCCC, -4.24 ± 0.72.

With UAUUAGCAAUAUUACGAGAC, the “self-splicing fitness (ln)” value (37 °C) was -1.9 ± 0.58. Take CAUAAGCAAUAUUACGUGGC: the “self-splicing fitness (ln)” value (30 °C) is -5.5 ± 1. Consider UGUGAGCAAUAUUACGUGCC, for which the “self-splicing fitness (ln)” value (37 °C) was -2.2 ± 0.55. As for GGUGAGCAAUAUUACGUUUU, the “self-splicing fitness (ln)” value is -2.94 ± 0.26 (30 °C) and -1.6 ± 0.23 (37 °C).

On to CCGUAGCAAUAUUACGCGAA, for which the “self-splicing fitness (ln)” value reads like this: (30 °C) -2.43 ± 0.51; (37 °C) -3.63 ± 0.73.

As to UUUAAGCAAUAUUACGAGCU, the “self-splicing fitness (ln)” value reads like this: (30 °C) -2.94 ± 0.22; (37 °C) -0.0484 ± 0.17. Turning to GUAUAGCAAUAUUACGUACC, the “self-splicing fitness (ln)” value is, setting by setting: (30 °C) -3.72 ± 0.55; (37 °C) -2.41 ± 0.54. Consider UACGAGCAAUAUUACGAAUA, for which the “self-splicing fitness (ln)” value was -3.28 ± 0.47 (30 °C) and -2.87 ± 0.48 (37 °C). The like results for GUUAAGCAAUAUUACGUGGC were, in that order, -2.56 ± 0.55 and -2.1 ± 0.33.

For the sequence GGUGAGCAAUAUUACGUAUA, the “self-splicing fitness (ln)” value (30 °C) was -3.76 ± 0.29 and the “self-splicing fitness (ln)” value (37 °C) was -3.25 ± 0.37. Regarding AAGGAGCAAUAUUACGUUAC, the “self-splicing fitness (ln)” value (30 °C) was -3.11 ± 0.74. As to AGGAAGCAAUAUUACGCUGU, under “37 °C”, the “self-splicing fitness (ln)” value is -0.0487 ± 0.53.

For UGGGAGCAAUAUUACGAAAG, where the note is “37 °C”, the “self-splicing fitness (ln)” value was -2.8 ± 0.62. The same measure, in the same setting: under GGAUAGCAAUAUUACGAAGC stands 0.417 ± 0.82.

With AUCUAGCAAUAUUACGCUGG, the “self-splicing fitness (ln)” value by setting is: (30 °C) -4.42 ± 0.51; (37 °C) -3.3 ± 0.52. With AGGCAGCAAUAUUACGCGAC, the “self-splicing fitness (ln)” value by setting is: (30 °C) -3.7 ± 0.62; (37 °C) -2.08 ± 0.64. For the sequence UCAGAGCAAUAUUACGCAUA, the “self-splicing fitness (ln)” value (37 °C) is -2.64 ± 0.66. As to CGGAAGCAAUAUUACGCACG, the “self-splicing fitness (ln)” value (30 °C) was -3.89 ± 1.

As to UUUUAGCAAUAUUACGGAAC, the “self-splicing fitness (ln)” value (37 °C) was -1.62 ± 1.1. With UAGGAGCAAUAUUACGACAA, the “self-splicing fitness (ln)” value runs as follows: (30 °C) -1.83 ± 0.69; (37 °C) -1.99 ± 0.65. As to CCAGAGCAAUAUUACGCUUA, the “self-splicing fitness (ln)” value (37 °C) is -2.98 ± 0.61. In the case of UGGGAGCAAUAUUACGCUCU, the “self-splicing fitness (ln)” value is -3.69 ± 0.62 (30 °C) and -2.65 ± 0.61 (37 °C). For CGUGAGCAAUAUUACGGCCA, the “self-splicing fitness (ln)” value (37 °C) is -3.26 ± 1. GGUCAGCAAUAUUACGGCGA: the “self-splicing fitness (ln)” value is 0.307 ± 0.14 (30 °C) and 0.838 ± 0.14 (37 °C). Regarding GCAGAGCAAUAUUACGUUCC, under “30 °C”, the “self-splicing fitness (ln)” value was -2.9 ± 0.54. Same read-out and setting: the same measure for AGGGAGCAAUAUUACGGUAU: -0.572 ± 0.76. As to AAAGAGCAAUAUUACGAAUG, for the setting “37 °C”, the “self-splicing fitness (ln)” value was -2.75 ± 0.54.

As for ACCAAGCAAUAUUACGGCCC, the “self-splicing fitness (ln)” value was -0.856 ± 0.11 (30 °C) and 0.112 ± 0.16 (37 °C). The like results for UCGGAGCAAUAUUACGCGAA were, in that order, -4.49 ± 1 and -3.77 ± 0.52.

Turning to UUCAAGCAAUAUUACGUCGA, the “self-splicing fitness (ln)” value runs as follows: (30 °C) -0.383 ± 0.078; (37 °C) -0.0975 ± 0.087. The like results for GACUAGCAAUAUUACGCAAA were, in that order, -1.49 ± 0.15 and -1.88 ± 0.23. As for GGCUAGCAAUAUUACGCCAG, the “self-splicing fitness (ln)” value (37 °C) was -2.16 ± 0.56. Turning to AAAUAGCAAUAUUACGAAAA, the “self-splicing fitness (ln)” value (30 °C) is -2.66 ± 0.35 and the “self-splicing fitness (ln)” value (37 °C) is -1.47 ± 0.22. For the sequence GGUCAGCAAUAUUACGAGGG, the “self-splicing fitness (ln)” value (30 °C) is -4.23 ± 0.51. On the same count and under the same terms, under GCGGAGCAAUAUUACGGCCU stands -0.86 ± 1.4.
